From PMC7819943, “Rice protein-binding microarrays: a tool to detect cis-acting elements near promoter regions in rice”
The other results are listed elsewhere or left out.

Protein sequences, listed by entry. Tags and fused reporters are not part of them.
UniProt Q0JBA9, entry or part of it: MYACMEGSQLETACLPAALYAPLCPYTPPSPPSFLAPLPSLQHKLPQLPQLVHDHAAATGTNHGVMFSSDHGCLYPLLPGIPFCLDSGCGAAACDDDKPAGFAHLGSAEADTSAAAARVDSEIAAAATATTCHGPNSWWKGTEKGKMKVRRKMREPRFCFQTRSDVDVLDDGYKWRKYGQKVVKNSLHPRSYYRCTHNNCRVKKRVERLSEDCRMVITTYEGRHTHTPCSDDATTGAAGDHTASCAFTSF

Molecular target: OsWRKY34 (Oryza sativa, UniProt Q0JBA9 1-250)
Assay: protein-binding microarray (RPBM); PBS, 2% BSA, 51.3 ng/ul salmon testes DNA, 50 uM zinc acetate, 200 nM TF, 25 C, 1 h; high values mean tight binding
Details: protein: recombinant; tags: N-terminal polyhistidine and DsRed monomer fusion (pET32a); label: CyDye5-dUTP incorporated in the synthesized complementary strand; 3' TTTTT single-stranded linker to array surface; dsDNA, one strand shown
Method in brief: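 Polyhistidine-tagged DsRed fusions of transcription factors, joined at the N-terminus, were expressed in E. coli BL21-CodonPlus and isolated on Ni–NTA. They were incubated at 200 nM for 1 h at 25 °C on a custom Agilent array, double-stranded and BSA-blocked, in PBS with 2% BSA, salmon testes DNA and 50 µM zinc acetate. The binding signal is per-feature fluorescence intensity (arbitrary units) read on an Axon 4000B scanner after washing.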

Question: Which binding signal does the source give for “CGTCCTCGGTCACTTTTATTCTATTGACGTAACCGAGGTCCGGAGTCACCTAGTGCAG” here?
Answer: 8070 fluorescence intensity (a.u.)

Question: Which binding signal does the source give for “CTTGTTCTTGCCCAATCCTAGTAGAAGCGCCTAACTTGTCCGGAGTCACCTAGTGCAG” here?
Answer: 9450 fluorescence intensity (a.u.)

Question: How did the binding signal turn out when “CTCTCCTGTATCTCAAGTCTAATGTTGCAATCACTGACTGCGGAGTCACCTAGTGCAG” was run?
Answer: 8820 fluorescence intensity (a.u.)

Question: “ACGCACCACCCGTACTACGTGCCCACCCGCGCGCGCGCCGCGGAGTCACCTAGTGCAG” was tested. Which binding signal did it give?
Answer: 8220 fluorescence intensity (a.u.)

Question: “TCGACTTACTGACCTGGCCGGTTCCATATCTCCTAGATCACGGAGTCACCTAGTGCAG” was tested. Which binding signal did it give?
Answer: 9550 fluorescence intensity (a.u.)

Question: For “ATCTTGTCAGTGCTGGTCTATCTCGATTCATGATTCTCTCCGGAGTCACCTAGTGCAG”, which binding signal is on record?
Answer: 10500 fluorescence intensity (a.u.)

Question: With “ATTAATATATGGTCACACCTGTAATACACACATTGTGTCTCGGAGTCACCTAGTGCAG” as the sequence, how does the binding signal read?
Answer: 8310 fluorescence intensity (a.u.)

Question: “GTGAAGCGATCTGTATTGGTGGAGGGGAGGGGAGGGGATGCGGAGTCACCTAGTGCAG” was tested. Which binding signal did it give?
Answer: 24000 fluorescence intensity (a.u.)

Question: For “TTGCTATGTTCCATGGAGTTGCTATCTTTACCTGTGTTACCGGAGTCACCTAGTGCAG”, which binding signal is on record?
Answer: 10400 fluorescence intensity (a.u.)

Question: For “TAGGTGTTGCTACTCGCCATTGTCTCATCACGCTCCGCCTCGGAGTCACCTAGTGCAG”, which binding signal is on record?
Answer: 10500 fluorescence intensity (a.u.)

Question: “AACTTCTTAGGTTCTAATCAAACACTTAATTTATCTTTTCCGGAGTCACCTAGTGCAG” was tested. Which binding signal did it give?
Answer: 8420 fluorescence intensity (a.u.)

Question: Which binding signal does the source give for “GACGTAGTAGCCAATTTATAGACCGATTTTGTTCTGTTTTCGGAGTCACCTAGTGCAG” here?
Answer: 9100 fluorescence intensity (a.u.)

Question: Which binding signal does the source give for “AGCCACTTGTCCATTTTCCCCGTGCTTTGCGGTCGAGAGACGGAGTCACCTAGTGCAG” here?
Answer: 10100 fluorescence intensity (a.u.)

Question: “CTATCTCTCCAACCAAACACTGTCGTATCATCCCACGTGTCGGAGTCACCTAGTGCAG” was tested. Which binding signal did it give?
Answer: 8090 fluorescence intensity (a.u.)

Question: For “GCGATGTCGGTGTGTGGGTGGTGGTATATTTTTCCTTTTTCGGAGTCACCTAGTGCAG”, which binding signal is on record?
Answer: 18000 fluorescence intensity (a.u.)

Question: “GCTGGGGAGGGGATGGATGCGGCGGCCGGCAACTCCTCTTCGGAGTCACCTAGTGCAG” was tested. Which binding signal did it give?
Answer: 8850 fluorescence intensity (a.u.)

Question: “ACTTGTATTCTTCCTCGTCTTCCTCTTCTGTATTTCTGGTCGGAGTCACCTAGTGCAG” was tested. Which binding signal did it give?
Answer: 8140 fluorescence intensity (a.u.)

Question: “TTGCCGCCTTCTCTCGGTTTGATTGTTGGCGGTTCTTGATCGGAGTCACCTAGTGCAG” was tested. Which binding signal did it give?
Answer: 9630 fluorescence intensity (a.u.)

Question: For “GTTTCAGCTTTCAATTTGGAGTTGATTTTGGGTCTTTTCACGGAGTCACCTAGTGCAG”, which binding signal is on record?
Answer: 8870 fluorescence intensity (a.u.)

Question: With “TTCATTAAATTTAACGTTGACTATATTTTAATACAATATTCGGAGTCACCTAGTGCAG” as the sequence, how does the binding signal read?
Answer: 9500 fluorescence intensity (a.u.)

Question: Which binding signal does the source give for “CCCGTGCCGGGCCGGGCCGTGCCGCCCGTTTGGACACCTCCGGAGTCACCTAGTGCAG” here?
Answer: 9460 fluorescence intensity (a.u.)

Question: With “CGTCGACCACCGTTTTCTTGGCCCCGTCTCGCCGCGATCTCGGAGTCACCTAGTGCAG” as the sequence, how does the binding signal read?
Answer: 13900 fluorescence intensity (a.u.)

Question: “AACTTTCGATGTGACACCCAAAAATTTACTTTTCCCCAACCGGAGTCACCTAGTGCAG” was tested. Which binding signal did it give?
Answer: 8050 fluorescence intensity (a.u.)

Question: With “CCGTATCCAATTTCGACGTCCATCTTACCTTACGTCCACCCGGAGTCACCTAGTGCAG” as the sequence, how does the binding signal read?
Answer: 12800 fluorescence intensity (a.u.)

Question: For “CTCCAACCTAACCCCTGCCTGCCTGCATCAACCATATATGCGGAGTCACCTAGTGCAG”, which binding signal is on record?
Answer: 8720 fluorescence intensity (a.u.)

Question: Which binding signal does the source give for “TCTCGGTTAGTTCGGTTCGATCTTTTTCTGCCCACCCTTACGGAGTCACCTAGTGCAG” here?
Answer: 8560 fluorescence intensity (a.u.)

Question: How did the binding signal turn out when “TTTGGCCGAACTCTCTCCGATTTGGCGGATCTTCTATTTTCGGAGTCACCTAGTGCAG” was run?
Answer: 10200 fluorescence intensity (a.u.)

Question: With “GTGGGGAGGTGGGGAGGAGATAGAGGCGGGATTCAAAAATCGGAGTCACCTAGTGCAG” as the sequence, how does the binding signal read?
Answer: 12200 fluorescence intensity (a.u.)

Question: For “TAGACTCTATACTCTACTTCTAATATTCCTTATTTTTAATCGGAGTCACCTAGTGCAG”, which binding signal is on record?
Answer: 8220 fluorescence intensity (a.u.)

Question: How did the binding signal turn out when “CCGTGTTCTTGCTGCTGCTGCTGTTCTTCGTGAGCCTCCTCGGAGTCACCTAGTGCAG” was run?
Answer: 8810 fluorescence intensity (a.u.)

Question: “GCTTGGTCGGGCTGCATGGCAACCAACTATTCCACCTAACCGGAGTCACCTAGTGCAG” was tested. Which binding signal did it give?
Answer: 8320 fluorescence intensity (a.u.)

Question: With “TATCCATCCGAATCTGATCTGTTTTCATCCCTCTAGACTTCGGAGTCACCTAGTGCAG” as the sequence, how does the binding signal read?
Answer: 9110 fluorescence intensity (a.u.)

Question: How did the binding signal turn out when “CCGCGTACCGCCTCATCTTCTCAACTCGCACCACTCGTTCCGGAGTCACCTAGTGCAG” was run?
Answer: 11300 fluorescence intensity (a.u.)

Question: With “ATGACCCTATCCACCCGCATGTGCTTCTGCTTCGTAGTTACGGAGTCACCTAGTGCAG” as the sequence, how does the binding signal read?
Answer: 15800 fluorescence intensity (a.u.)

Question: How did the binding signal turn out when “AGTATGCCTTATCAACTCTTAAGCACACTTATCATTTTATCGGAGTCACCTAGTGCAG” was run?
Answer: 10500 fluorescence intensity (a.u.)

Question: With “TTGCACTGCAGCTCACGCGTCGCTTTTGACCATCCCCGCCCGGAGTCACCTAGTGCAG” as the sequence, how does the binding signal read?
Answer: 8280 fluorescence intensity (a.u.)

Question: How did the binding signal turn out when “ATCGTGCAACCACTACTTAACCACCACACCAACTTCATCACGGAGTCACCTAGTGCAG” was run?
Answer: 8710 fluorescence intensity (a.u.)

Question: “GGCCCAAGGAGGAAGGGGAGTTTTTATTTTGTTTTCTTTTCGGAGTCACCTAGTGCAG” was tested. Which binding signal did it give?
Answer: 12000 fluorescence intensity (a.u.)

Question: How did the binding signal turn out when “CTCTCTCTCCATCCATGGCCGATCGTCGACGCCGTCGGTCCGGAGTCACCTAGTGCAG” was run?
Answer: 8810 fluorescence intensity (a.u.)

Question: Which binding signal does the source give for “ATCTTTTTCCCGGTTCCATCAATCCCACGACCACGAGTACCGGAGTCACCTAGTGCAG” here?
Answer: 8660 fluorescence intensity (a.u.)

Question: Which binding signal does the source give for “TATGTGTCTGTTTCCTTGTGTTCTCTGGTATGTGCGAATTCGGAGTCACCTAGTGCAG” here?
Answer: 9270 fluorescence intensity (a.u.)

Question: With “GATGCTTAGTGCCTTCGACTTGCTCGACAATATTCCCCAACGGAGTCACCTAGTGCAG” as the sequence, how does the binding signal read?
Answer: 8860 fluorescence intensity (a.u.)
